1 compound from US20130199313A1, “METHOD FOR EVALUATING THE SOLUBILITY OF A CRYSTALLINE SUBSTANCE IN A POLYMER” (Abbott GmbH & Co, KGW, priority 2010, published 2013) can be followed below.

This series can be described thus: Flory-Huggins fit of solute activity from annealing-method solubility data (interaction parameter χ). The series is classed as physicochemical. The conditions noted are these: polymer PVP K-12, Flory-Huggins fit.

On to `COC(=O)C1=C(C)NC(C)=C(C(=O)OC)C1c1ccccc1[N+](=O)[O-]` [NIF, nifedipine], for which the “solute-solvent interaction parameter χ as determined with the method of the present invention” value is −2.5 ± 0.2.
